PubChem BioAssay AID504786 | Drosophila RNAi Screening Center – 2011
Aim: 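Fly genes required for HIF-dependent transcription when hypoxia is mimicked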 (primary screen). Cell system: Drosophila S2 cells with a stable HIF luciferase reporter. Reagents: long dsRNA against Drosophila genes, about 0.2 µg dsRNA per well of a 384-well plate. Time to read-out: three days of knock-down, then 20 h of DFO before reading. Conditions: desferrioxamine (DFO) at 100 µM, an iron chelator that mimics hypoxia, for 20 h. Measurement: 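HIF reporter luminescence in cells given 100 µM DFO for 20 h, using the mouse ldh-a hypoxia-response element, scored as per-plate z-scores; higher means greater loss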. Reading the numbers: z-score: higher = stronger loss of HIF reporter signal.
The deposit covers about 21,000 reagents; this is an unselected part of those that have a named target and a result. 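Primary screen; positive scores mean lost reporter signal, so the sign may be inverted from the usual convention.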 Names joined by + are all predicted targets of the reagent. Further read-outs or replicates are left out here.

Stacl + CG8179 (retired record) [DRSC07091] → z-score, replicate 1: 1.4
eIF2beta [DRSC11341] → z-score, replicate 1: 1.8
CG5180 [DRSC15731] → z-score, replicate 1: -0.2
5-HT1B [DRSC05031] → z-score, replicate 1: -0.2
5-HT1B [DRSC05769] → z-score, replicate 1: 3.6
CG10654 [DRSC09767] → z-score, replicate 1: -0.2
CG4022 [DRSC10395] → z-score, replicate 1: 0
CG8839 [DRSC07285] → z-score, replicate 1: -0.3
RpS20 [DRSC16836] → z-score, replicate 1: 3.8
Diap1 [DRSC11404] → z-score, replicate 1: 4.8
scrt [DRSC08736] → z-score, replicate 1: 1.7
blp [DRSC15757] → z-score, replicate 1: 0.1
AsnS [DRSC11468] → z-score, replicate 1: -0.1
Adss [DRSC14162] → z-score, replicate 1: -0.1
HisT [DRSC05051] → z-score, replicate 1: 0
HisT [DRSC05052] → z-score, replicate 1: 0.6
HisT [DRSC06405] → z-score, replicate 1: 0.6
